Publication doi:10.1101/463919
Results are given in words; binding and its absence hold for the method and conditions named. Some entries that bind do so weakly or less than the wild type. Where a sequence is shown, tags or fusion partners need not be part of it.

Molecular target: T1, TOFU-6, recombinant (HA-His- or GST-tagged) (C. elegans) (UniProt Q09293)
T1 sequence: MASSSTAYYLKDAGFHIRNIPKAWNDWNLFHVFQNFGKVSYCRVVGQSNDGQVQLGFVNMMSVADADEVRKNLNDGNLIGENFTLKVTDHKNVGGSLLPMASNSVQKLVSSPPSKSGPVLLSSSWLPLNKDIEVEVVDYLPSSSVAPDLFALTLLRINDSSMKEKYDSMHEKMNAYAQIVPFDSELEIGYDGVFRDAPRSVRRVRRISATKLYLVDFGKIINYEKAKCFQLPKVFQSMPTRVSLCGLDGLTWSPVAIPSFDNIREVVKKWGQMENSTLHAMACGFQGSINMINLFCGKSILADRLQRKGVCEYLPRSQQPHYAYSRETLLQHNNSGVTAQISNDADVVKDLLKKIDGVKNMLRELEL
Test: pull-down

B1: IFE-3, recombinant (HA-His- or GST-tagged) (protein, UniProt O61955 1-251)
chain: MSTSVAENKALSASGDVNASDASVPPELLTRHPLQNRWALWYLKADRNKEWEDCLKMVSLFDTVEDFWSLYNHIQSAGGLNWGSDYYLFKEGIKPMWEDVNNVQGGRWLVVVDKQKLQRRTQLLDHYWLELLMAIVGEQFDEYGDYICGAVVNVRQKGDKVSLWTRDATRDDVNLRIGQVLKQKLSIPDTEILRYEVHKDSSARTSSTVKPRICLPAKDPAPVKEKGPAATTSPSNPGTEATGTSPATPTP
B1 was tested, and the binding was “binds”.
